According to publication PMC8769375:
Results are given in words; binding and its absence hold for the method and conditions named. Where a sequence is shown, tags or fusion partners need not be part of it.

Tests used:
[1] = biological target: Myc-tagged human preproinsulin R46X (early termination at the 46th residue of PPI) (human) (UniProt F8WCM5); assay: non-reducing SDS-PAGE and Western blot of disulfide-linked complexes; 293T cells transfected with one Myc-tagged PPI construct; lysates blotted with anti-Myc under non-reducing conditions
[2] = biological target: Myc-tagged human preproinsulin R46X (early termination at the 46th residue of PPI) (human) (UniProt F8WCM5); assay: non-reducing SDS-PAGE and Western blot of disulfide-linked complexes; INS1 cells transfected with one Myc-tagged PPI construct; lysates blotted under non-reducing conditions
[3] = biological target: Myc-tagged human preproinsulin R46X (early termination at the 46th residue of PPI) (human) (UniProt F8WCM5); assay: non-reducing SDS-PAGE and Western blot of disulfide-linked complexes; 293T cells co-transfected with untagged PPI-WT and Myc-tagged PPI-WT or mutants; homodimers (D, D') and heterodimers (H) told apart by size under non-reducing conditions

Measured: binding

MALWMRLLPLLALLALWGPDPAAAFVNQHLCGSHLVEALYLVCGE (domain or fragment, UniProt F8WCM5 1-45) [Myc-tagged human preproinsulin R46X (early termination at the 46th residue of PPI)]
no binding: all assays above
